Test results taken from paper PMC10759229.
These are yes or no findings as the source states them, for the method shown. In cells and extracts the contact can be indirect. Some results given as binding are weak or reduced against the parent protein; the word gives no strength. Where a sequence is shown, tags or fusion partners need not be part of it.

The chains behind the UniProt entries cited, without tags or fusion partners.
UniProt Q5S007: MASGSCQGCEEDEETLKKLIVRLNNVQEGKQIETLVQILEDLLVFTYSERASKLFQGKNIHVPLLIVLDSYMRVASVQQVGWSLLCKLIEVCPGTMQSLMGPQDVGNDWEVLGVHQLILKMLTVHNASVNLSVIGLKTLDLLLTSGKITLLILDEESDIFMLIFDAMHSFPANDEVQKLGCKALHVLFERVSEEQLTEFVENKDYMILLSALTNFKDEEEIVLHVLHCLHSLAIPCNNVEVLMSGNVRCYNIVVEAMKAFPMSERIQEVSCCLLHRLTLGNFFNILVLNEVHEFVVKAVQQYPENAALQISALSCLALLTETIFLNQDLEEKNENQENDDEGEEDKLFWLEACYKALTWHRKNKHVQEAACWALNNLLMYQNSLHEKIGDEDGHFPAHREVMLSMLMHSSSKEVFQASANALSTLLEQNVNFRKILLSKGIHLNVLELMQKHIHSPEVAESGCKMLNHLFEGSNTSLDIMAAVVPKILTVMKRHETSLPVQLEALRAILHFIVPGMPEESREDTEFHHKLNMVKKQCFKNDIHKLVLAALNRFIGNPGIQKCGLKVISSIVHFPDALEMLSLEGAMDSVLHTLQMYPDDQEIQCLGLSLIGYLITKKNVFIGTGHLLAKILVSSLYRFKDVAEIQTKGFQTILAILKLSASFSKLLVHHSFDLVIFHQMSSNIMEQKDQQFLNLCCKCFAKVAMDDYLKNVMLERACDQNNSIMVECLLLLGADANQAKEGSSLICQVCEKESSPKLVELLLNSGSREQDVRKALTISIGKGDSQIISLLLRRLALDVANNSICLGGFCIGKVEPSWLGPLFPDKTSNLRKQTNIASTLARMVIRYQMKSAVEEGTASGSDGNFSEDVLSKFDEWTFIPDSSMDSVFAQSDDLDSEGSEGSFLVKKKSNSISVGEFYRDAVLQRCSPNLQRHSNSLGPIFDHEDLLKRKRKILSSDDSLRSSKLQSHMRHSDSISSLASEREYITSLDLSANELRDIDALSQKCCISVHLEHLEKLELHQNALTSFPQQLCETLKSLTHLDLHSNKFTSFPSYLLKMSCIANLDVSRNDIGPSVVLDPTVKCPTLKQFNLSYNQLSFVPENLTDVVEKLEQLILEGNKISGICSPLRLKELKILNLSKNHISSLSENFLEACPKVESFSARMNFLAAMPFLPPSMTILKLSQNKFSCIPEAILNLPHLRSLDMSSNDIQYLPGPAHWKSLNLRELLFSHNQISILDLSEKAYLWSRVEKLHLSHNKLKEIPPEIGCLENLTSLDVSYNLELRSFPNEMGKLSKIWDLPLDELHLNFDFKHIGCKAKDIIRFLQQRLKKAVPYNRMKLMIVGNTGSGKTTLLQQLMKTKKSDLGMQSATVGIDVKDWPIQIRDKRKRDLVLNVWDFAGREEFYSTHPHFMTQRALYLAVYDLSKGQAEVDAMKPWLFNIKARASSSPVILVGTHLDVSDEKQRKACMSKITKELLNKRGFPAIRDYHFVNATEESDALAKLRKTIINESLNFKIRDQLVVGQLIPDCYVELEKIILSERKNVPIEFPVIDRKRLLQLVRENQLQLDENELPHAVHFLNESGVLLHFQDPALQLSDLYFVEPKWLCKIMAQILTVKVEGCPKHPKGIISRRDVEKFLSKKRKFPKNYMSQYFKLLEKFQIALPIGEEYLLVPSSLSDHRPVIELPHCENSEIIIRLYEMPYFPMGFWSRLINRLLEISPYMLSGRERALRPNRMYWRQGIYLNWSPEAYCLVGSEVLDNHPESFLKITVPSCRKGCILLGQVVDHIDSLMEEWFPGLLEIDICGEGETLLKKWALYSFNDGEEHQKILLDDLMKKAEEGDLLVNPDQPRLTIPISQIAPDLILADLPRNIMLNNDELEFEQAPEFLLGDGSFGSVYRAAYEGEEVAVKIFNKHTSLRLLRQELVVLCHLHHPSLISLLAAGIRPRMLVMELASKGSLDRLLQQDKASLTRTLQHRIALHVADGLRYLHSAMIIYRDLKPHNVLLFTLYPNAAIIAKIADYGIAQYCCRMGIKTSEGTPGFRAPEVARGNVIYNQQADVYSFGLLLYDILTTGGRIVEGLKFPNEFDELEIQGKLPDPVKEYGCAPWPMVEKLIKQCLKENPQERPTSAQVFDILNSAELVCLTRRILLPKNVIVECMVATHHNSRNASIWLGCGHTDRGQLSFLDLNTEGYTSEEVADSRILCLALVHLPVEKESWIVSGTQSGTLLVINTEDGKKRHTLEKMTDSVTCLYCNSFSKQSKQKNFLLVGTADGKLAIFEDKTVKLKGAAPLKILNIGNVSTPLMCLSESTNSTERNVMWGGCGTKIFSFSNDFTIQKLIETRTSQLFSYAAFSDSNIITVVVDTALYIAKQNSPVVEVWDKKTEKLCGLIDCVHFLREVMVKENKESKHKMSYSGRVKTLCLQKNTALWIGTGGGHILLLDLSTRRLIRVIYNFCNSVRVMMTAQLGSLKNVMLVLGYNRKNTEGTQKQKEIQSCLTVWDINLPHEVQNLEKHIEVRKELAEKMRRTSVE
UniProt P67775: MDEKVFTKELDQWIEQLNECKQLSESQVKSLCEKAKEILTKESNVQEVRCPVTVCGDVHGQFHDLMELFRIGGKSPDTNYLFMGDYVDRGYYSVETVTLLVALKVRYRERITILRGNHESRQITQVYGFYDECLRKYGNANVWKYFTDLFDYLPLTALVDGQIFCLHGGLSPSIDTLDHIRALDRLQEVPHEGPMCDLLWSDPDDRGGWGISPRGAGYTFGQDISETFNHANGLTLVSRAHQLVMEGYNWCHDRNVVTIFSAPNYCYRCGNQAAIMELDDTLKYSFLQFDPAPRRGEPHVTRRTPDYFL

T1: 3xFlag-PPP2R2C wild-type (PP2A regulatory subunit B, gamma isoform a) (UniProt Q9Y2T4)
T1 sequence: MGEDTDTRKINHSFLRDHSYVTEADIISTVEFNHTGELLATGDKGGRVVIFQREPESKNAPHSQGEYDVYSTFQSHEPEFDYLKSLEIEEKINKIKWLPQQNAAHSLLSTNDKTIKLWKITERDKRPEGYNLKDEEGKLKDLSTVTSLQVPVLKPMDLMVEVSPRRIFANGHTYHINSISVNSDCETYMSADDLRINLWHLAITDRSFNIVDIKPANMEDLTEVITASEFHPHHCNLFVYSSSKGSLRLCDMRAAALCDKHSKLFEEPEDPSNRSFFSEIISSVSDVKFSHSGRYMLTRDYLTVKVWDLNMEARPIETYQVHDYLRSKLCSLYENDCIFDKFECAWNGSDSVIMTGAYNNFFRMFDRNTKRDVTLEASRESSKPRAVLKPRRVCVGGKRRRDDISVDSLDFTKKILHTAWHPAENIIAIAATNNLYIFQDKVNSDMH


Legend:
[1] = biological target: GFP-LRRK2 WT (leucine-rich repeat kinase 2) (UniProt Q5S007); test: proximity ligation; HEK293T cells co-transfected with GFP-LRRK2 WT and 3xFlag-PPP2R2C WT or S381A; fixed, permeabilised; rabbit anti-LRRK2 MJFF2 (c41-2) and mouse anti-Flag M2; confocal imaging
[2] = biological target: GFP-LRRK2 WT (leucine-rich repeat kinase 2) (UniProt Q5S007); test: co-IP; HEK293T cells co-transfected with GFP-LRRK2 WT (IP) and 3xFlag-PPP2R2C WT or S381A; lysate on beads, 4°C; western blot with quantification (Figure 4A, B)
[3] = biological target: GFP-PPP2CA wild-type (PP2A catalytic subunit) (UniProt P67775); test: co-IP; HEK293T cells co-transfected with GFP-PPP2CA WT and 3xFlag-PPP2R2C WT, S381A or S381D; lysate on GFP-TrapA or anti-Flag M2 agarose beads, 4°C; western blot with quantification (Figure 2)
[4] = biological target: T1, 3xFlag-PPP2R2C wild-type (PP2A regulatory subunit B, gamma isoform a); test: co-IP; HEK293T cells co-transfected with 3xFlag-PPP2R2C and 2xMyc-PAK6; lysate incubated with anti-Flag M2 agarose or GFP-TrapA beads for 2 h or overnight at 4°C; western blot (Figures 1B and 3D)

Row | Binder | binding [1] | binding [2] | binding [3] | binding [4]
1 | 3xFlag-PPP2R2C wild-type (PP2A regulatory subunit B, gamma isoform a) (protein, UniProt Q9Y2T4-1 1-447) MGEDTDTRKINHSFLRDHSYVTEADIISTVEFNHTGELLATGDKGGRVVIFQREPESKNAPHSQGEYDVYSTFQSHEPEFDYLKSLEIEEKINKIKWLPQQNAAHSLLSTNDKTIKLWKITERDKRPEGYNLKDEEGKLKDLSTVTSLQVPVLKPMDLMVEVSPRRIFANGHTYHINSISVNSDCETYMSADDLRINLWHLAITDRSFNIVDIKPANMEDLTEVITASEFHPHHCNLFVYSSSKGSLRLCDMRAAALCDKHSKLFEEPEDPSNRSFFSEIISSVSDVKFSHSGRYMLTRDYLTVKVWDLNMEARPIETYQVHDYLRSKLCSLYENDCIFDKFECAWNGSDSVIMTGAYNNFFRMFDRNTKRDVTLEASRESSKPRAVLKPRRVCVGGKRRRDDISVDSLDFTKKILHTAWHPAENIIAIAATNNLYIFQDKVNSDMH | binds | binds | binds | –
2 | 3xFlag-PPP2R2C S381A (phosphodeficient) (protein, UniProt Q9Y2T4-1 1-447) MGEDTDTRKINHSFLRDHSYVTEADIISTVEFNHTGELLATGDKGGRVVIFQREPESKNAPHSQGEYDVYSTFQSHEPEFDYLKSLEIEEKINKIKWLPQQNAAHSLLSTNDKTIKLWKITERDKRPEGYNLKDEEGKLKDLSTVTSLQVPVLKPMDLMVEVSPRRIFANGHTYHINSISVNSDCETYMSADDLRINLWHLAITDRSFNIVDIKPANMEDLTEVITASEFHPHHCNLFVYSSSKGSLRLCDMRAAALCDKHSKLFEEPEDPSNRSFFSEIISSVSDVKFSHSGRYMLTRDYLTVKVWDLNMEARPIETYQVHDYLRSKLCSLYENDCIFDKFECAWNGSDSVIMTGAYNNFFRMFDRNTKRDVTLEASREASKPRAVLKPRRVCVGGKRRRDDISVDSLDFTKKILHTAWHPAENIIAIAATNNLYIFQDKVNSDMH | binds | binds | binds | –
3 | 2xMyc-PAK6 K436M (kinase dead) (enzyme, UniProt Q9NQU5 1-681) MFRKKKKKRPEISAPQNFQHRVHTSFDPKEGKFVGLPPQWQNILDTLRRPKPVVDPSRITRVQLQPMKTVVRGSAMPVDGYISGLLNDIQKLSVISSNTLRGRSPTSRRRAQSLGLLGDEHWATDPDMYLQSPQSERTDPHGLYLSCNGGTPAGHKQMPWPEPQSPRVLPNGLAAKAQSLGPAEFQGASQRCLQLGACLQSSPPGASPPTGTNRHGMKAAKHGSEEARPQSCLVGSATGRPGGEGSPSPKTRESSLKRRLFRSMFLSTAATAPPSSSKPGPPPQSKPNSSFRPPQKDNPPSLVAKAQSLPSDQPVGTFSPLTTSDTSSPQKSLRTAPATGQLPGRSSPAGSPRTWHAQISTSNLYLPQDPTVAKGALAGEDTGVVTHEQFKAALRMVVDQGDPRLLLDSYVKIGEGSTGIVCLAREKHSGRQVAVMMMDLRKQQRRELLFNEVVIMRDYQHFNVVEMYKSYLVGEELWVLMEFLQGGALTDIVSQVRLNEEQIATVCEAVLQALAYLHAQGVIHRDIKSDSILLTLDGRVKLSDFGFCAQISKDVPKRKSLVGTPYWMAPEVISRSLYATEVDIWSLGIMVIEMVDGEPPYFSDSPVQAMKRLRDSPPPKLKNSHKVSPVLRDFLERMLVRDPQERATAQELLDHPFLLQTGLPECLVPLIQLYRKQTSTC | – | – | – | binds
4 | 3xFlag-PPP2R2C S381D (phosphomimetic) (protein, UniProt Q9Y2T4-1 1-447) MGEDTDTRKINHSFLRDHSYVTEADIISTVEFNHTGELLATGDKGGRVVIFQREPESKNAPHSQGEYDVYSTFQSHEPEFDYLKSLEIEEKINKIKWLPQQNAAHSLLSTNDKTIKLWKITERDKRPEGYNLKDEEGKLKDLSTVTSLQVPVLKPMDLMVEVSPRRIFANGHTYHINSISVNSDCETYMSADDLRINLWHLAITDRSFNIVDIKPANMEDLTEVITASEFHPHHCNLFVYSSSKGSLRLCDMRAAALCDKHSKLFEEPEDPSNRSFFSEIISSVSDVKFSHSGRYMLTRDYLTVKVWDLNMEARPIETYQVHDYLRSKLCSLYENDCIFDKFECAWNGSDSVIMTGAYNNFFRMFDRNTKRDVTLEASREDSKPRAVLKPRRVCVGGKRRRDDISVDSLDFTKKILHTAWHPAENIIAIAATNNLYIFQDKVNSDMH | – | – | binds | –
